Substitutions are numbered along the chain they refer to. In names and notes the source's numbering stands. These are yes or no findings as the source states them, for the method shown. In cells and extracts the contact can be indirect. A result given as binding can be weak or reduced; the word gives no strength.
B1: RALA (endogenous, mouse fibroblasts) (protein, UniProt P63321 1-206)
chain: MAANKPKGQNSLALHKVIMVGSGGVGKSALTLQFMYDEFVEDYEPTKADSYRKKVVLDGEEVQIDILDTAGQEDYAAIRDNYFRSGEGFLCVFSITEMESFAATADFREQILRVKEDENVPFLLVGNKSDLEDKRQVSVEEAKNRADQWNVNYVETSAKTRANVDKVFFDLMREIRARKMEDSKEKNGKKKRKSLAKRIRERCCIL
B2: WT-RALA (protein, UniProt P11233 1-206)
chain: B1 chain with D147E
B3: S194A-RALA (protein, UniProt P11233 1-206)
chain: B1 chain with D147E, S194A
B4: S194D-RALA (protein, UniProt P11233 1-206)
chain: B1 chain with D147E, S194D
B5: RALA (endogenous, MCF7 and MiaPaCa2 cells) (protein, UniProt P11233 1-206)
chain: B1 chain with D147E
B6: RALB (endogenous, MCF7 and MiaPaCa2 cells) (protein, UniProt P11234 1-206)
chain: MAANKSKGQSSLALHKVIMVGSGGVGKSALTLQFMYDEFVEDYEPTKADSYRKKVVLDGEEVQIDILDTAGQEDYAAIRDNYFRSGEGFLLVFSITEHESFTATAEFREQILRVKAEEDKIPLLVVGNKSDLEERRQVPVEEARSKAEEWGVQYVETSAKTRANVDKVFFDLMREIRTKKMSENKDKNGKKSSKNKKSFKERCCLL

Biological target: GST-Sec5 Ral binding domain (RBD) (UniProt Q96KP1)
Assay: pull-down

binding, binds:
B1
B2
B3
B4
B5
B6

Source: paper doi:10.1101/2024.12.15.628532
